# Data published in PMC6151437 (Molecules : A Journal of Synthetic Chemistry and Natural …, 2017).
# Assay: general procedure: Fmoc solid-phase peptide synthesis; Rink amide resin (0.46 meq/g); DCC/6-Cl-HOBt
# Conditions: whole synthesis, RP-HPLC
Substance,final HPLC purity,crude HPLC purity
(FKARRWQWRMKKLGA)2K-Ahx,88%,–
(RRWQWR)2K-Ahx,86%,–
(RRWQWRMKKLG)2K-Ahx,86%,–
^17FKARRWQWRMKKLGA^31,95%,–
^20RRWQWRMKKLG^30,95%,–
^20RRWQWR^25,92%,40%
